Experimental data published in article PMC6656725.
These are yes or no findings as the source states them, for the method shown. Binding seen in cells or lysates may run through a third protein. Some entries that bind do so weakly or less than the wild type. Where a sequence is shown, tags or fusion partners need not be part of it.

By UniProt entry, the sequences of proteins in these tests, tags left out.
UniProt P51532: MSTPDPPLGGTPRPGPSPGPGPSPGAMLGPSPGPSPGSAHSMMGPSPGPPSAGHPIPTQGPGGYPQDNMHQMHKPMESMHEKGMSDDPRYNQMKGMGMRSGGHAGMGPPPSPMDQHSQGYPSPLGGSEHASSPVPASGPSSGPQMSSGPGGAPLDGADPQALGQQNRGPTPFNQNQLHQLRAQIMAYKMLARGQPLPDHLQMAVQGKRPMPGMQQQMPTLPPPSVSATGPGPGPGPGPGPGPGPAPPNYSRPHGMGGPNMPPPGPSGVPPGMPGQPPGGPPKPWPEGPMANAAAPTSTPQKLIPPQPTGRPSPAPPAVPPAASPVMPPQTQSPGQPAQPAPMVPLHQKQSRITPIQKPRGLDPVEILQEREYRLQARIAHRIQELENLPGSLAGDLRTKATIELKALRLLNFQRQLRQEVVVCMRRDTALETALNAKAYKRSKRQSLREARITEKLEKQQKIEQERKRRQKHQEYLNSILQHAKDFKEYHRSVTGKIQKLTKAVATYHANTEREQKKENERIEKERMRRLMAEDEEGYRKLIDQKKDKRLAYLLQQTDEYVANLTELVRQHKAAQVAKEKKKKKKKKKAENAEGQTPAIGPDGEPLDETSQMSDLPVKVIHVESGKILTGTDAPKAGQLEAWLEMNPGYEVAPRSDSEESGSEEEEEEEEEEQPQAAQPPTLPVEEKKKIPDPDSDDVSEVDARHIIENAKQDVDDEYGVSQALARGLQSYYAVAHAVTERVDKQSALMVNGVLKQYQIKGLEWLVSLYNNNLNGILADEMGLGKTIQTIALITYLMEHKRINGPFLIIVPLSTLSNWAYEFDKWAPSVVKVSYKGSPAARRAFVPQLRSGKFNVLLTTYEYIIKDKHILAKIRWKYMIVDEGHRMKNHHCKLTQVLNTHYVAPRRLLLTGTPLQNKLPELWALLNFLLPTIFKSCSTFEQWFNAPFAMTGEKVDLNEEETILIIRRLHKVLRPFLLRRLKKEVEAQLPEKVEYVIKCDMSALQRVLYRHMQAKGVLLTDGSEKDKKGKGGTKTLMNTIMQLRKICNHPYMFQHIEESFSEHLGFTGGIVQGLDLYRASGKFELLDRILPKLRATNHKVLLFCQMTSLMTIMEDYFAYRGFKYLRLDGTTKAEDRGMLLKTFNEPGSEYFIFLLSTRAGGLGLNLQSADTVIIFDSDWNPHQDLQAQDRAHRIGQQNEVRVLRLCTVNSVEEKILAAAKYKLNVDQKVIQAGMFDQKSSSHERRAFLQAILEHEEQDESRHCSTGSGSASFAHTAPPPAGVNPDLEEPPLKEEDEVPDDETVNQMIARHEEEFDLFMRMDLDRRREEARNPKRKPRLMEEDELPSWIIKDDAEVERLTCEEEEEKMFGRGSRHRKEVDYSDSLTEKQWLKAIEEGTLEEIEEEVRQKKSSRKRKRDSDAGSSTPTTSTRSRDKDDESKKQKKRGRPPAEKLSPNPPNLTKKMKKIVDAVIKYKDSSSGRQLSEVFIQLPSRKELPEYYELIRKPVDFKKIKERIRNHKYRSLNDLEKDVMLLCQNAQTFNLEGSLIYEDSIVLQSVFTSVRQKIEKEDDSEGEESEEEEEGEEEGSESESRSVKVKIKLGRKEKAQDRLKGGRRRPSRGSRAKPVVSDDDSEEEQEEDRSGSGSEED

Biological target: T1, mEOMES-V5 (mouse EOMES expressed from pcDNA3-mEOMES-V5 in 293 cells) (mouse) (UniProt O54839)
T1 sequence: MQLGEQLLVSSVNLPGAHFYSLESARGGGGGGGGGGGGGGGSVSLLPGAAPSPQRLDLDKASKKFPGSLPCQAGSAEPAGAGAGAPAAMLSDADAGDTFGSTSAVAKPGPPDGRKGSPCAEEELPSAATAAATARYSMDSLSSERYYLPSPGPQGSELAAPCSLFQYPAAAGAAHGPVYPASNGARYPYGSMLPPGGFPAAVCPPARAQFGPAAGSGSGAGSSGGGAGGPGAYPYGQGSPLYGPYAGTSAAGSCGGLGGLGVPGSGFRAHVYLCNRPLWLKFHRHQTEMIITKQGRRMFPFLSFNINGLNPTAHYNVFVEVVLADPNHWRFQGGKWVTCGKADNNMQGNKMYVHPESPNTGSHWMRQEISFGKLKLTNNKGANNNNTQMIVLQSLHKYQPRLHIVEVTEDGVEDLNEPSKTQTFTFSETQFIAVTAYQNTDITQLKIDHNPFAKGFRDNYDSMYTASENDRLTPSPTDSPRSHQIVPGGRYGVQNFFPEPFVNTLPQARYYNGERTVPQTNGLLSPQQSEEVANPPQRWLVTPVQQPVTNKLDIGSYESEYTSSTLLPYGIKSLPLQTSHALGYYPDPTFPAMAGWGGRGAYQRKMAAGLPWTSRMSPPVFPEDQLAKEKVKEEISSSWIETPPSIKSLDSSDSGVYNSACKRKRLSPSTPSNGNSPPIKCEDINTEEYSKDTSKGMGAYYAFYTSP
Experiment: co-IP; lysates of 293 cells transfected with pcDNA3-mEOMES-V5; IP with anti-EOMES or anti-BRG1 overnight at 4 °C, protein G magnetic beads; 50 mM Tris-HCl pH 7.4, 120 mM NaCl, 1 mM EDTA; immunoblot for BRG1 or EOMES

binding: binds
Substance: BRG1, endogenous, in 293 cells (from UniProt P51532 1-1647)
